Laboratory results: patent publication US20120214778A1 (priority 2009, published 2012)

Assay: CONFIRM phase III study: health-related quality of life (FACT-B, TOI)
Type: in vivo, postmenopausal women
Conditions: HRQoL subgroup

## C[C@]12CC[C@@H]3c4ccc(O)cc4C[C@@H](CCCCCCCCC[S+]([O-])CCCC(F)(F)C(F)(F)F)[C@H]3[C@@H]1CC[C@@H]2O (stereo partly drawn) [fulvestrant, 7alpha-[9-(4,4,5,5,5-pentafluoropentylsulfinyl)-nonyl]estra-1,3,5, (10)-triene-3, 17beta-diol]
250 mg, 73 patients
  mean TOI score (on-treatment HRQoL): approximately 60 out of 92
500 mg, 72 patients
  mean TOI score (on-treatment HRQoL): approximately 60 out of 92
